No constants are given. Whether binding was seen depends on the method and setting. In cells and extracts the contact can be indirect. Some results given as binding are weak or reduced against the parent protein; the word gives no strength.

Chains of the proteins cited; added tags and fusions are not shown. Lines headed by an entry give the natural chain unless they say otherwise; changes in a name come on top. A line that says so, or that is headed by a name, gives the form on record, which may keep a tag or linker. Residues count along the entry.
Flag-TIM^Ct WT (Q9UNS1, residues 882-1208): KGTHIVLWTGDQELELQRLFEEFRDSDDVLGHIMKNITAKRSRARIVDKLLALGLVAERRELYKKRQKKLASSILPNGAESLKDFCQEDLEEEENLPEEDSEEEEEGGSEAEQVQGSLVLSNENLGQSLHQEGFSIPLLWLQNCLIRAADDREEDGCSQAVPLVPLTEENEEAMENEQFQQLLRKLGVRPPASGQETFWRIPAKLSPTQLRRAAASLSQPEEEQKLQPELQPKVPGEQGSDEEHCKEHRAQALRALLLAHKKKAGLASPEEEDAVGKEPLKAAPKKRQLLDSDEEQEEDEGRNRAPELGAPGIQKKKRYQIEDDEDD
Flag-TIM^Ct PARP1-binding mutant (MT: E1049Q/E1056Q/T1078D) (Q9UNS1, form named): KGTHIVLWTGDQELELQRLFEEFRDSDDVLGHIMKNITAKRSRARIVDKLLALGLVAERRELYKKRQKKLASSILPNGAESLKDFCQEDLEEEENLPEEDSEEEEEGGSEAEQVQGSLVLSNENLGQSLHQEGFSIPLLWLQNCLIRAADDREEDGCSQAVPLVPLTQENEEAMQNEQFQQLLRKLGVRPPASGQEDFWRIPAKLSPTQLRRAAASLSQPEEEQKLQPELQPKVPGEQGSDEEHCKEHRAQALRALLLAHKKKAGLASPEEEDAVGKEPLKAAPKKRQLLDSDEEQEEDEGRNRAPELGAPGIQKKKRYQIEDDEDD
UniProt P09874: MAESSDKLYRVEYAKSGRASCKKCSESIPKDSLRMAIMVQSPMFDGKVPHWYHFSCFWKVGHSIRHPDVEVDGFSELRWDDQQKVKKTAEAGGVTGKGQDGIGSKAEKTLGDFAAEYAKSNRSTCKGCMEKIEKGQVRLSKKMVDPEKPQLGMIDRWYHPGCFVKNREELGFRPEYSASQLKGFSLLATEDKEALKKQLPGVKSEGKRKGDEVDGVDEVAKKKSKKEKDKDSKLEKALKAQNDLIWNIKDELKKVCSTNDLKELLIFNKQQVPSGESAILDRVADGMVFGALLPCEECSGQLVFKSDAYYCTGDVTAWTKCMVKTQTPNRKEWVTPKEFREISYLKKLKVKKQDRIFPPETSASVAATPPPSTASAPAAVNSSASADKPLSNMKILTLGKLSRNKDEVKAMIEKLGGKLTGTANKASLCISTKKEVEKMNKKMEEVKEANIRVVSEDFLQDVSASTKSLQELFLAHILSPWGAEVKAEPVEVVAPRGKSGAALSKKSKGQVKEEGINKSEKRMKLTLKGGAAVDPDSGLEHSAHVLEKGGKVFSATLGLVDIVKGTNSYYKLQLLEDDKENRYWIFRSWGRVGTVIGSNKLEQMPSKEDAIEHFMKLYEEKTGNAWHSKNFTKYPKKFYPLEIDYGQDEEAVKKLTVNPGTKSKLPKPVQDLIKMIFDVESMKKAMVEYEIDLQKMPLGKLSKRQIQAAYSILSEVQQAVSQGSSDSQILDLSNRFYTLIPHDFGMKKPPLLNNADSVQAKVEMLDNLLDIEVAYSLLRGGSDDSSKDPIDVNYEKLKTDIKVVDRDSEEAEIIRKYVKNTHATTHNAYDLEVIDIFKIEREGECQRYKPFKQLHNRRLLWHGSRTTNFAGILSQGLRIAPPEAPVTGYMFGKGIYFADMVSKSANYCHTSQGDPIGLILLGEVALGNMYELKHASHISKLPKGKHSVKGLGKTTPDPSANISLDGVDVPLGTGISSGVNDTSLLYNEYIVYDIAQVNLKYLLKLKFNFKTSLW

The target of assay [1] is Flag-TIM^Ct PARP1-binding mutant (MT: E1049Q/E1056Q/T1078D) (human) (UniProt Q9UNS1). The assay can be described thus: co-IP; anti-Flag co-IP (anti-FLAG M2 affinity gel) from transfected HEK293T lysates, NETN150 buffer, 4 h at 4 °C.
The target of the next assay is Flag-TIM^Ct WT (human) (UniProt Q9UNS1). The description is as above.

With “PARP1, endogenous (from UniProt P09874 1-1014)”, the binding result in assay [1] is listed as “no binding”; with Flag-TIM^Ct WT (human), “binds”.

These data come from paper PMC7603486.
